Assay results: patent US20240182575A1
No constants are given. Whether binding was seen depends on the method and setting. Some results given as binding are weak or reduced against the parent protein; the word gives no strength.

Protein sequences, listed by entry. Tags and fused reporters are not part of them. Lines headed by an entry give the natural chain unless they say otherwise; changes in a name come on top. Chains listed by the source or under a name are the forms on record and can include a tag or linker.
human CTLA4 (Y201 mutated to valine) on stably transfected CHO-K1 cells (P16410, form named): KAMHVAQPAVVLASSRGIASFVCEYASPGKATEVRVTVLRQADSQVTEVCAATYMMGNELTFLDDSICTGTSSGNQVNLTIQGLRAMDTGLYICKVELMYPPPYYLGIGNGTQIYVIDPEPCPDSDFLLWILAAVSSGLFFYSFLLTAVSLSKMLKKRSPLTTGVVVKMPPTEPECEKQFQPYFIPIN

What was measured:
[1] = target: HuCD80-MuIgG2a (extracellular (173aa) domain of human CD80 fused to murine IgG2a Fc+hinge (232 aa), Ancell Cat #510-820) (human; mouse) (UniProt P33681); test: competition ELISA, coated CD80-Ig; blocked ligand CD28-Ig
[2] = target: HuCD80-MuIgG2a (extracellular (173aa) domain of human CD80 fused to murine IgG2a Fc+hinge (232 aa), Ancell Cat #510-820) (human; mouse) (UniProt P33681); test: competition ELISA, coated CD80-Ig; blocked ligand CTLA4-Ig
[3] = target: human CTLA4 (Y201 mutated to valine) on stably transfected CHO-K1 cells (human) (UniProt P16410); test: FACS competition, human CTLA4 CHO cells; blocked ligand CD80-Fc

binding [1] | binding [2] | binding [3] | Binder
binds | binds | – | CD8086PMP1E11 (VHH, not shown: small tags and cut ends) VHH: EVQLVESGGGLVQPGGSLRLSCAASGFTLDYSAIGWFRQAPGKEREGVSYISSSDGSTYYADSVEGRFTISRDNAKNTLYLQMNSLKPEDTAVYYCAAGGPFTVSTMPWLANYWGQGTQVTVSS
– | – | binds | 4CTLAPMP11E3 (VHH, not shown: small tags and cut ends) VHH: EVQLVESGGGLVEPGGSLRLSCAASGSISSYNVMGWYRQAPGQQRDLVAHIASNGEIMYADSAKGRFTISRDNAKKTVYLQMNSLKPEDTAVYYCKLWVLGNDYWGQGTQVTVSS
– | – | binds | 4CTLAPMP12H2 (VHH, not shown: small tags and cut ends) VHH: EVQLVESGGGLVEPGGSLRLSCAASGSISSYNVMGWYRQAPGQQRDLVAHIASNGEIMYADSAKGRFTISRDNAKKTVYLQMNSLKPEDTAVYYCKLWVLGNDYWGQRTQVTVSS
